Several values for one entry are separate records, joined by “and”; a condition that tells them apart may be missing. Equal entries are not always repeated. Among all 300,000 compounds or so, about 5,400 (1.8%) were called active. The shares of active, inactive and inconclusive entries below differ from those in the screen. Calls come from the whole dose curve; tested in HEK293 cells. A potency beside an inconclusive call is a rough fit, not a confirmed value. A structure can be active in one record and inactive in another.
Assay: qHTS for inhibitors of binding or entry into cells for Marburg Virus
Details: Marburg virus pseudotyped entry inhibition, cell reporter; activity change, negative = inhibition: at 37.8 µM (top of the series) unless noted
% is set by controls: 0 for no effect and ±100 for the full control effect; potency is the fitted concentration of half-maximal effect.

Q: For COC(=O)C1CCN(C(=O)COC(=O)C2CCN(S(=O)(=O)c3ccc(C)c(C)c3)CC2)CC1, which “activity change, negative = inhibition” value is on record?
A: inactive: 7.23%

Q: With O=[N+]([O-])c1cccc(-c2c[n+]3c(n2-c2ccccc2)SCC3)c1 as the compound, how does the “activity change, negative = inhibition” value read?
A: inactive: 8.92% [at 46.1 µM]

Q: With COc1ccccc1-c1cc(C(=O)Nc2c(C)nn(Cc3ccc(Cl)cc3)c2C)no1 as the compound, how does the Potency read?
A: active: 10 µM

Q: Which Potency does the source give for CCOC(=O)c1c(NC(=O)CSc2cn(CCNC(=O)c3ccc(OC)cc3)c3ccccc23)sc2c1CCC2 here?
A: inconclusive: 10 µM [inhibitor, partial curve, poor fit]

Q: For COC(=O)C(CSCc1ccccc1)NC(=O)CSc1nc(C)cc(=O)[nH]1 (centres undefined), which Potency is on record?
A: inconclusive: 11.2 µM [activator, partial curve, poor fit]

Q: For Cc1cc2ncc(-c3ncc(C(F)(F)F)cc3Cl)cn2n1, which Potency is on record?
A: inconclusive: 6.51 µM [inhibitor, partial curve, poor fit]

Q: Which Potency does the source give for CCOC(=O)c1ccc(N2C(=O)c3n[nH]c(-c4ccco4)c3C2c2cccc(F)c2)cc1 (centres undefined) here?
A: inconclusive: 11.2 µM [inhibitor, partial curve, poor fit]

Q: Which Potency does the source give for Cc1ccc(C2CC(C(F)(F)F)n3nc(C(=O)Nc4c(C)n(C)n(-c5ccccc5)c4=O)cc3N2)cc1 (centres undefined) here?
A: inconclusive: 35.5 µM [inhibitor, single point]

Q: For CCCN1CCN(CCCNC(=O)C(CC)n2nc(C)c3sc4ccccc4c3c2=O)CC1 (centres undefined), which Potency is on record?
A: inconclusive: 35.5 µM [inhibitor, single point]

Q: With Cc1nc2c3cc(Cl)ccc3n(CCN3CCOCC3)c2s1 as the compound, how does the Potency read?
A: inconclusive: 35.5 µM [inhibitor, single point]

Q: Which “activity change, negative = inhibition” value does the source give for CCOC(=O)COc1ccccc1/C=N/O here?
A: inactive: 15.4%

Q: With COc1ccc(/C=C/C(=O)C2(O)CCCCC2)cc1OC as the compound, how does the Potency read?
A: inconclusive: 20 µM [inhibitor, partial curve, poor fit]

Q: With CC(C)NS(=O)(=O)c1ccc(OCC(=O)N2CCN(c3cccc(Cl)c3)CC2)cc1 as the compound, how does the Potency read?
A: inconclusive: 7.94 µM [inhibitor, partial curve, poor fit]

Q: With COc1cccc(/C=C/C(=O)OCC(=O)N2CCN(S(=O)(=O)c3ccc(Cl)cc3)CC2)c1 as the compound, how does the Potency read?
A: inconclusive: 35.5 µM [activator, single point]

Q: With Cc1ccc(NC(=O)C2CCN(S(=O)(=O)c3c(C)noc3/C=C/c3ccco3)CC2)nc1 as the compound, how does the Potency read?
A: inconclusive: 10 µM [inhibitor, partial curve, poor fit]

Q: For COc1ccc(CCNc2nc(-c3sc(N)nc3C)cs2)cc1OC, which Potency is on record?
A: inconclusive: 11.2 µM [inhibitor, partial curve, poor fit]

Q: Which “activity change, negative = inhibition” value does the source give for Cc1ccc(Cn2c(C)c(CNCc3ccccc3F)c(C(=O)O)c2C)cc1 here?
A: inactive: 14.3% [at 46.1 µM]

Q: With COc1cccc(CN(C)CC(=O)NCc2ccccc2Cl)c1 as the compound, how does the Potency read?
A: inconclusive: 35.5 µM [activator, single point]

Q: Which Potency does the source give for O=C(N/N=C\c1ccc(Cl)cc1)c1sccc1-n1cccc1 here?
A: inconclusive: 1.26 µM [activator, single point]

Q: With Cc1ccc(C)c(N2CCN(S(=O)(=O)c3ccc4c(c3)CC(C)N4C(=O)C3CC3)CC2)c1 (centres undefined) as the compound, how does the Potency read?
A: inconclusive: 0.631 µM [inhibitor, partial curve, poor fit]

Q: With COc1cccc(-c2nnc3sc(-c4ccco4)nn23)c1 as the compound, how does the Potency read?
A: inconclusive: 2.06 µM [activator, full curve, poor fit]

Q: Which Potency does the source give for Cc1sc(NC(=S)NC(=O)CCc2ccccc2)c(C(N)=O)c1C here?
A: inconclusive: 0.355 µM [inhibitor, full curve, poor fit]

Q: For COc1cccc(C2C(C#N)=C(N)OC3=C2C(=O)CC(c2ccco2)C3)c1OCc1ccc(F)cc1 (centres undefined), which Potency is on record?
A: inactive and active: 15.8 µM

Q: For Cc1ccccc1NC(=O)c1cc(N)ccc1N1CCCCC1, which “activity change, negative = inhibition” value is on record?
A: inactive: -6.24%

Q: Which Potency does the source give for O=C(COC(=O)c1ccccc1-c1nc2ccccc2s1)Nc1ccccc1C(F)(F)F here?
A: inconclusive: 1 µM [activator, full curve, poor fit]

Q: For COc1ccc(C(=O)c2cn(Cc3ccc(F)cc3)c3c(F)cc(F)cc3c2=O)cc1, which “activity change, negative = inhibition” value is on record?
A: inactive: -21.4% [at 46.1 µM]

Q: For C/C(CCc1oc2ccc(Br)cc2c1-c1ccc(C)o1)=N/O, which Potency is on record?
A: inconclusive: 31.6 µM [inhibitor, single point]

Q: Which Potency does the source give for COC(=O)/C=C1/SC(=NC(=O)c2cccc([N+](=O)[O-])c2)NC1=O here?
A: inconclusive: 35.5 µM [activator, single point]

Q: With O=C(COc1ccccc1[N+](=O)[O-])N1CCN(C(=O)c2ccco2)CC1 as the compound, how does the Potency read?
A: inconclusive: 6.31 µM [inhibitor, single point]

Q: With Cc1ccc(N(Cc2ccccc2)C(=O)c2cc(S(=O)(=O)N3CCOCC3)ccc2F)cc1 as the compound, how does the Potency read?
A: inconclusive: 0.126 µM [inhibitor, full curve, poor fit]

Q: With CCc1ccc(S(=O)(=O)Nc2c(C)nn(C)c2C)cc1 as the compound, how does the “activity change, negative = inhibition” value read?
A: inactive: -4.09%

Q: Which Potency does the source give for CCOC(=O)c1ccc(NC(=O)CSc2nc3cccnc3n2C)cc1 here?
A: inconclusive: 12.6 µM [inhibitor, single point]

Q: For Cc1ccc(NC(=O)C2C3C=CC4(O3)C2C(=O)N(CCCN2CCCCC2)C4C(=O)NC2CCCCC2)cc1Cl (centres undefined), which Potency is on record?
A: inconclusive: 17.8 µM [inhibitor, single point]

Q: Which Potency does the source give for Cc1c2n(c3ccccc13)CC/C2=N\O here?
A: inconclusive: 0.251 µM [inhibitor, full curve, poor fit]

Q: With COc1ccc(NC(=O)CSc2nc(O)cc(=O)n2-c2ccccc2OC)cc1 as the compound, how does the Potency read?
A: inconclusive: 29.1 µM [activator, single point]

Q: For Cc1cc(C)cc(NC(=O)COc2ccc(C(=S)N3CCOCC3)cc2)c1, which Potency is on record?
A: inconclusive: 2.82 µM [inhibitor, partial curve, poor fit]

Q: Which Potency does the source give for Cc1ccc(C)c2[nH]c(=O)c(C(c3nnnn3C3CCCC3)N3CCOCC3)cc12 (centres undefined) here?
A: inconclusive: 0.231 µM [activator, partial curve]

Q: For O=C(CN1C(=O)COc2ccc(S(=O)(=O)N3CCCCCC3)cc21)N1CCN(c2cccc(Cl)c2)CC1, which “activity change, negative = inhibition” value is on record?
A: inactive: -2.89% [at 46.1 µM]

Q: Which Potency does the source give for CC(C)(C)c1cnnn1-c1ccc(C(=O)CCl)cc1 here?
A: inconclusive: 10.3 µM [inhibitor, partial curve]

Q: Which Potency does the source give for Cc1nc(Nc2ccc3c(c2)OCCO3)c2nnn(Cc3ccccc3Cl)c2n1 here?
A: inconclusive: 5.17 µM [inhibitor, partial curve, poor fit]

Q: With O=S1(=O)c2ccccc2N=NN1Cc1ccc(Cl)cc1 as the compound, how does the “activity change, negative = inhibition” value read?
A: inactive: -8.57%

Q: Which “activity change, negative = inhibition” value does the source give for Cn1nnnc1SCC1=C(C(=O)O)N2C(=O)[C@@H](NC(=O)[C@H](O)c3ccccc3)[C@H]2SC1 here?
A: inactive: -2%

Q: Which “activity change, negative = inhibition” value does the source give for Cc1ccc(S(=O)(=O)N2CCOCC2)cc1C(=O)O here?
A: inactive: -2.5%

Q: Which Potency does the source give for CC(=O)c1c(C)nc(C)nc1NC(=O)C(C)C here?
A: inconclusive: 6.31 µM [inhibitor, single point]

Q: With COCCN(C(=O)COC(=O)c1c(NC(C)=O)sc(C)c1C)c1c(N)n(Cc2ccccc2)c(=O)[nH]c1=O as the compound, how does the “activity change, negative = inhibition” value read?
A: inactive: -9.99%

Q: For CC(C)(C)c1ccc(C(=O)Nc2ccc3nc(SCC(=O)N4CCCC4)sc3c2)cc1, which Potency is on record?
A: inconclusive: 35.5 µM [inhibitor, single point]

Q: With Cc1ccc(C(=O)NC2CCN(C(=O)NC3CCCCC3)CC2)cc1 as the compound, how does the Potency read?
A: inconclusive: 1 µM [inhibitor, single point]

Q: For O=C(O)c1cccc(NC(=O)c2cccc(NC(=O)C3CCCO3)c2)c1 (centres undefined), which “activity change, negative = inhibition” value is on record?
A: inactive: -20.8%

Q: With CCOc1ccc(S(=O)(=O)Nc2ccc(C(=O)NCCCN3CCOCC3)cc2)cc1 as the compound, how does the “activity change, negative = inhibition” value read?
A: inactive: 12.7%

Q: With O=c1cc(CN2CCN(c3ccccc3)CC2)c2c(ccc3ccccc32)o1 as the compound, how does the Potency read?
A: inconclusive: 35.5 µM [inhibitor, single point]

Q: Which Potency does the source give for COc1ccc(-n2c(SCC(=O)Nc3ccccc3)nnc2-c2ccc(NS(=O)(=O)c3ccc(C)cc3)cc2)cc1 here?
A: inconclusive: 29.1 µM [inhibitor, single point]

Q: Which “activity change, negative = inhibition” value does the source give for O=C(O)C/C(=C\c1cc(Br)cs1)c1nc2ccccc2o1 here?
A: inactive: 20.2% [at 46.1 µM]

Q: For Cc1ccc(C)c(NC(=O)NNC(=O)c2cc3ccccc3cc2O)c1, which Potency is on record?
A: inconclusive: 14.1 µM [activator, partial curve, poor fit]

Q: Which Potency does the source give for CC(C)c1ccc(S(=O)(=O)Nc2cc3c(cc2NCc2ccccc2)n(C)c(=O)n3C)cc1 here?
A: inconclusive: 0.562 µM [inhibitor, full curve, poor fit]

Q: With CSc1ccc(NC(=O)Nc2cc(C)ccn2)cc1 as the compound, how does the Potency read?
A: active: 7.08 µM

Q: With O=C(CSc1nc(-c2ccccc2)[nH]c1-c1ccc(F)cc1)NC1CCCC1 as the compound, how does the Potency read?
A: inconclusive: 10 µM [inhibitor, partial curve, poor fit]

Q: For Cc1ccc(S(=O)(=O)N(CC(O)CN2CCOCC2)c2cccc([N+](=O)[O-])c2)cc1 (centres undefined), which Potency is on record?
A: inconclusive: 3.16 µM [activator, partial curve, poor fit]

Q: With COc1cc(-c2cn[nH]c2N)cc(OC)c1OC as the compound, how does the Potency read?
A: inconclusive: 1.16 µM [inhibitor, partial curve, poor fit]

Q: For COc1ccccc1C(=O)N1CCC(c2c[nH]c3ccccc23)(c2c[nH]c3ccccc23)CC1, which Potency is on record?
A: inconclusive: 35.5 µM [inhibitor, single point]

Q: Which Potency does the source give for CCc1nc(Sc2nc(C)cc(C)n2)c2oc3ccccc3c2n1 here?
A: inconclusive: 17.8 µM [inhibitor, single point]

Q: For O=C(Nc1cccc(Br)c1)c1cccc(OC(=S)N2CCOCC2)c1, which Potency is on record?
A: inconclusive: 17.8 µM [inhibitor, single point]

Q: With CCC1(CC)NC(=O)N(CC(=O)Nc2cccc3ccccc23)C1=O as the compound, how does the Potency read?
A: inconclusive: 10 µM [inhibitor, partial curve, poor fit]

Q: With CCCN1CN=C(Nc2nc3ccccc3o2)NC1 as the compound, how does the “activity change, negative = inhibition” value read?
A: inactive: 19.8% [at 46.1 µM]

Q: For CCOC(=O)COc1ccc2cc(C(=O)OCC)c(=O)oc2c1, which “activity change, negative = inhibition” value is on record?
A: inactive: -2.59%

From PubChem BioAssay AID540276 (National Center for Advancing Translational Sciences (NCATS), 2011)
